Results are given in words; binding and its absence hold for the method and conditions named. Binding seen in cells or lysates may run through a third protein. Binding can be weak; no strength is given. Sequences can lack the tags named with a protein.
Molecular target: LIN-46 (as used in the GST pull down) (C. elegans) (UniProt G5EF06)
Experiment: pull-down; GST pull down in vitro; constructs and conditions not told

By UniProt entry, the sequences of proteins in these tests, tags left out. Where a name states a change or a piece, a line headed by the entry shows the natural chain unless it says otherwise.
UniProt G5EF06: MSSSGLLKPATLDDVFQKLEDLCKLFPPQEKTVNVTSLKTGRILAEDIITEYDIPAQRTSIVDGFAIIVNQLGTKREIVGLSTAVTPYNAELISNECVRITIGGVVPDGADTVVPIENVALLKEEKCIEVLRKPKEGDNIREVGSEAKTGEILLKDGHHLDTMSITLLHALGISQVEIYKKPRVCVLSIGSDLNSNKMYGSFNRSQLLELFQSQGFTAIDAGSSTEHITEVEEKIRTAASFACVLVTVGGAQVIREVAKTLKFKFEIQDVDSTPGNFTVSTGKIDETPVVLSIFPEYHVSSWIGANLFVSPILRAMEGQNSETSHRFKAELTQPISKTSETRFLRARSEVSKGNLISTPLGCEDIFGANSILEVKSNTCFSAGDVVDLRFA

B1: HBL-1 (as used in the GST pull down) (protein, UniProt Q9XYD3 1-982)
chain: MVQSDSPEELAQRAKPAWRLQQMPVQLSNFVSKTPLIGSEWPPTGDWRSANNNSLGDWNKCCVPGSEIPQHLGPFGNSSLTMLTAQQPGEKIHPDGGYVSPKEDGRKSSEHTNSYDVSASQSPSNDGAQSDSTSDEHIDVECMTETEMDTDEKDSTIKPEDQATPKLEEGSDSKPESTSVEGTSSNYQVTSEPVQMPQMPIPVIPSFLKNSLPAPIPITPTQSANVERSNSPSIEEALLLTLSQQQFAEVFAEAAKIRKSSSESIGFQRSGTSAFLNIEPKEMSMSSANNNNEEAPASTVSACSTPTTTTSASFCRPPGLGPVALPPTQNGQTPMLVCPICGFMCPSKFHFNSHMNTHGDHQCSMCDYTSRTEGRLKKHMRESHTVEEQLRAGFESEPAKESASSPKNLSLSKDGSATSPINEIFNLSTTMASILDSTNNAVSSTSTTEQPSALSALTLDMSSTPSLLSTLAHSSFGVSALDQIKAISENPSFMPEGGINLASALGVVSNAIKGDTPSPEKQSNGECRRSSSGKIKIFKCKQCGHQSLSKDDQWAHARTHIPAEKQLNCQHCNFVTEYKHHLEYHYRNHIGSKPFQCKKCAYNCVNKSMLNSHMKSHTNHYQFRCMDCTYATKYCHSLKLHLKKYNHRRVPEGIEMSGGDSSPPFTSDATITFSPLMKQEIKTETVEPVTSIAQPFPFNPMMGNHGLNFANHMLLNKHLDVGLMGLRNSVMSPLKCSACDFVASSADEKMRHSMSHILNSSNVPTSIASLYNSLNLPSFSHVAPDNDNALESMDCDVKIDDDNITESHCYEEMDQGSDSAVSPTGSSQISSGDEETKKCKSLSLEQISARANGNNSPMSNDSAMEKDGESADDAPHSPSDTTSVPSPPLHSSSIVAPIPITPQPNEFLQSILAQASLLGPLLANRPSAFYCDHCKIPFDTQQVLDSHMRFHTPGNPFMCSDCQYQAFNELSFALHMYQARHQ
In the case of B1, the binding is reported as “binds”.
